Laboratory results published in patent US20240034991A1, “METHOD FOR EFFICIENTLY INDUCING REPROGRAMMING OF HUMAN CELL INTO NEURONAL CELL” (GUANGXI UNIVERSITY, priority 2022, published 2024).
For at least one compound, name, drawing or mass did not settle the structure.

How the values were obtained:
[1] = system: Human skin fibroblasts (BJ); assay: Immunofluorescence detection of neuronal cell marker antigens in induced human skin fibroblasts (CiNCs); assay type: cell-based
Protocol: After 48 h of induction, the induction medium was replaced with a neuronal cell maturation medium to continue promoting further maturation of the CiNCs, and the neuronal cell maturation medium was replaced with a neuronal cell medium after 72 h for long-term culture.
Immunofluorescence detection of neuronal cell marker antigens was conducted on human skin fibroblasts and cells induced by neuronal cell induction (N2B27+10 μM Forskolin) for 48 h. The method included the following specific steps: human skin fibroblasts and F-48h cells in a culture plate were fixated with 4% paraformaldehyde (PFA) at room temperature for 30 min; the cells were washed with a blocking solution three times, 5 min in each time; the cells were permeabilized by 1% TritonX-100 for 15 min at room temperature; the cells were washed with the blocking solution three times again; non-specific sites were blocked with 5% donkey serum, and then blocked for 2 h at room temperature; the cells were washed three times with TBP (Tritonx-Bovine albumin-Phosphate Buffer Saline) for 5 min in each time; a primary antibody was added for incubation at 4° C. overnight; on a next day, the culture plate was placed at room temperature, rewarmed for 20 min, and then washed with TBP three times for 5 min in each time, a secondary antibody and a Hoechst mixture were added in the dark, and incubated at room temperature for 1 h; after washing three times with a TBP solution, fluorescence microscope observation and photographing experiment were conducted.

[2] = system: Human skin fibroblasts (BJ); assay: Quantitative PCR of neuronal cell marker genes in induced human skin fibroblasts (CiNCs); assay type: cell-based; conditions: 10 μM, F-48 h compared with human skin fibroblasts F-0 h

Oc1c2ccccc2c2c3c(cccc13)N=N2 [SP600125]
Expression of neuronal cell marker antigens TUJ1, MAP2 and NeuN (immunofluorescence, FIG. 5) ([1]; N2B27+KSR+1011M compound): expressed neuronal cell marker antigens TUJ1, MAP2 and NeuN

c1cc(-c2cnn3cc(-c4ccc(OCCN5CCCCC5)cc4)cnc23)ccn1 [Dorsomorphin]
Expression of neuronal cell marker antigens TUJ1, MAP2 and NeuN (immunofluorescence, FIG. 5) ([1]; N2B27+KSR+10 μM compound): expressed neuronal cell marker antigens TUJ1, MAP2 and NeuN

C=C[C@@]1(C)CC(=O)[C@]2(O)[C@@]3(C)[C@@H](O)CCC(C)(C)[C@@H]3[C@H](O)[C@H](OC(C)=O)[C@@]2(C)O1 [Forskolin]
Expression of neuronal cell marker antigens (immunofluorescence staining, FIG. 3) ([1]; 10 μM, induced 48 h (F-48 h), human skin fibroblasts did not express same): expressed the neuronal cell marker antigens, TUJ1 and MAP2 | Expression level of fibroblast marker gene Col1A1 (qPCR, FIG. 4) [2]: significantly down-regulated | Expression of neuronal cell-related marker genes NeuroD1, tubulin, Ascl1 (qPCR, FIG. 4) [2]: highly expressed
